Structures were worked out from names or drawings and are uncertain.

By UniProt entry, the sequences of proteins in these tests, tags left out. Residues count along the entry.
UniProt P12931, whole entry: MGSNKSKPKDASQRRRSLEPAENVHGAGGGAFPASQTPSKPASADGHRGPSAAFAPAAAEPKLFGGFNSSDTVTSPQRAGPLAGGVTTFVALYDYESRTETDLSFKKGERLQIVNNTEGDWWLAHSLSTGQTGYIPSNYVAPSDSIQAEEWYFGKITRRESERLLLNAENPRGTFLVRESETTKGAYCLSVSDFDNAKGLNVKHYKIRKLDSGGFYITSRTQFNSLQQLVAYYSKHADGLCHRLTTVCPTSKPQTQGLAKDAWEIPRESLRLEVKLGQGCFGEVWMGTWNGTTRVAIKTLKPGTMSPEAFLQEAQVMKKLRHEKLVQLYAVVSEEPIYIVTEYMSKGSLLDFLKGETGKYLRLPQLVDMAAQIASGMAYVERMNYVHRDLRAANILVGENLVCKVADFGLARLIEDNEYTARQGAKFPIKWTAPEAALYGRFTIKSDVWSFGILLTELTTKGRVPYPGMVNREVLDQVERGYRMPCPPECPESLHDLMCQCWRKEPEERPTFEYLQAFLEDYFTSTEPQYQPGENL
UniProt P11362, 22-822 limits assumed: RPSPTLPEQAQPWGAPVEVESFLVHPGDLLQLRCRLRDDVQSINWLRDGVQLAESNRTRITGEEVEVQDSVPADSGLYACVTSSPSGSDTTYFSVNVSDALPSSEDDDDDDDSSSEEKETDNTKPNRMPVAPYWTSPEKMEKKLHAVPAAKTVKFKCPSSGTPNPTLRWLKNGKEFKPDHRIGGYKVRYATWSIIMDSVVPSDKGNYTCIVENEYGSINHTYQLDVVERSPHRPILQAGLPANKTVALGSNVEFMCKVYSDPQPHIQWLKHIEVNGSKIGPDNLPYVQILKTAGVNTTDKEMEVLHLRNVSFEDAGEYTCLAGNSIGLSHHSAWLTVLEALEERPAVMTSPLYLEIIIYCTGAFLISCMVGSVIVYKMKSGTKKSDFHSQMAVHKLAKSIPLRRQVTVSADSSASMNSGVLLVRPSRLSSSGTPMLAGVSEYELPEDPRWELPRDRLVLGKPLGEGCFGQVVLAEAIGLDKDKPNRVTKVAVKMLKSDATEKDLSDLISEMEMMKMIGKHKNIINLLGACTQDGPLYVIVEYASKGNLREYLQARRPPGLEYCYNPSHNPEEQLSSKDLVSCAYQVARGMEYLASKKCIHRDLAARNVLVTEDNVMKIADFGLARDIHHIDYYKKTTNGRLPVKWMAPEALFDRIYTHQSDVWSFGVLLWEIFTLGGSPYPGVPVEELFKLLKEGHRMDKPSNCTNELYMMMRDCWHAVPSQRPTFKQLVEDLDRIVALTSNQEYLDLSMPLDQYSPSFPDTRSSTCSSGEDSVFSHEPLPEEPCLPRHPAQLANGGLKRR

For one assay, the target named is Recombinant human Src (Homo sapiens, UniProt P12931). In words: Src tyrosine kinase activity assay with poly E4Y and 32P-ATP. The following applies: read-out: IC50 Value Src, NI = no inhibition. On the procedure: (§1) Recombinant human Src was expressed using the baculovirus-insect cell system and purified as published (Budde et al., 1993 and 2000). Recombinant Csk and the FGF receptor (FGFr) were expressed as […] fusion proteins using the pGEX expression vector and E. coli, and purified as described (Sun & Budde, 1995).
(§2) The tyrosine kinase activity of Src, Csk and FGFr was determined using poly E4Y and ^32P-ATP. Briefly, enzymes were assayed in a reaction mixture […] consisting of 0.15 M EPPS-NaOH (pH 8.0) with 6 mM MgCl2, 0.2 mM γ^32P-ATP (0.2-0.4 mCi/μmol), 10% glycerol, 0.1% Triton X-100, and poly E4Y. Poly E4Y is a synthetic peptide whose phosphorylation is measured in this assay by the addition of the radioactively labeled phosphate from the ATP (Budde et al., 1995). For screening assays, 50 μg/ml poly E4Y was used, and for Ki determinations variable concentrations (0, 20, 30, 75, and 150 μg/ml) of poly E4Y were used. When ATP was varied (0, 50, 100 and 250 μM), poly E4Y was kept constant at 150 μg/ml.

For another assay, the target named is FGF receptor (FGFr) (UniProt P11362). Briefly: FGFr tyrosine kinase activity assay with poly E4Y and 32P-ATP. The following applies: read-out: IC50 Value FGFr, NI = no inhibition. On the procedure: as §1, §2

Usually IC50 stands for the midpoint of a concentration-inhibition curve. For the molecule `CCOc1ccccc1-c1sc2c(NN=Cc3ccc(-n4ccnc4)cc3)ncnc2c1C#N`, the IC50 at Recombinant human Src came to 0.01 µM; on FGF receptor (FGFr), 6.2 µM.

(Values after patent US20060004002A1 (priority 2004, published 2006).)
